From the supplement of paper PMC10849652
The list shows a part of the results.

The chains behind the UniProt entries cited, without tags or fusion partners. Where a name states a change or a piece, a line headed by the entry shows the natural chain unless it says otherwise.
UniProt Q16864, whole entry, looked up: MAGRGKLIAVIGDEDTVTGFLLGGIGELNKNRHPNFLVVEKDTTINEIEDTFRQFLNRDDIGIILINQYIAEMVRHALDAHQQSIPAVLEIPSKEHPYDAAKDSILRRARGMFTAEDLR
UniProt Q93050, whole entry, looked up: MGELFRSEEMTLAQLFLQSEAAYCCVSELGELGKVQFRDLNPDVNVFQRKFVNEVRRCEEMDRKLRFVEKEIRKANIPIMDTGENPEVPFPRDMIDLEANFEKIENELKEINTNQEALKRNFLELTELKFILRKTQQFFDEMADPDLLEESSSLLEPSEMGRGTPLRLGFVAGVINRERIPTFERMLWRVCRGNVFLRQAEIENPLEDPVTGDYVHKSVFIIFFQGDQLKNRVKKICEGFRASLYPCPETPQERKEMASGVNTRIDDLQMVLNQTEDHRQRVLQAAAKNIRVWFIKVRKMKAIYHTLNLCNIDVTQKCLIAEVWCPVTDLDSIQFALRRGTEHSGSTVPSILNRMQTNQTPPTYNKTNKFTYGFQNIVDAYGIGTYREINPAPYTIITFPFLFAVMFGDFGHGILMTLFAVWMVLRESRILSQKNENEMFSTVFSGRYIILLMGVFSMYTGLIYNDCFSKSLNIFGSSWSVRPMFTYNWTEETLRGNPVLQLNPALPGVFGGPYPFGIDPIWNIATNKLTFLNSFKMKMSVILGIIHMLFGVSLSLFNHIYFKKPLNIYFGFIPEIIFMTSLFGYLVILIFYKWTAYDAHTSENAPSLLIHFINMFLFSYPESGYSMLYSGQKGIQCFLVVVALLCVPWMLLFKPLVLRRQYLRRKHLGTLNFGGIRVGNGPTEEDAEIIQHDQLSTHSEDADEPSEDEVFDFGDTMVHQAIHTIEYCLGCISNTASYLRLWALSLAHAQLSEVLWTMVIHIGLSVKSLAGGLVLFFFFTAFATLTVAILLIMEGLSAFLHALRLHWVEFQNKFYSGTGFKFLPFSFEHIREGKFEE
UniProt P56378: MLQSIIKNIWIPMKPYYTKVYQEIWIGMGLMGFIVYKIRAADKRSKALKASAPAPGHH
UniProt P21281, whole entry, looked up: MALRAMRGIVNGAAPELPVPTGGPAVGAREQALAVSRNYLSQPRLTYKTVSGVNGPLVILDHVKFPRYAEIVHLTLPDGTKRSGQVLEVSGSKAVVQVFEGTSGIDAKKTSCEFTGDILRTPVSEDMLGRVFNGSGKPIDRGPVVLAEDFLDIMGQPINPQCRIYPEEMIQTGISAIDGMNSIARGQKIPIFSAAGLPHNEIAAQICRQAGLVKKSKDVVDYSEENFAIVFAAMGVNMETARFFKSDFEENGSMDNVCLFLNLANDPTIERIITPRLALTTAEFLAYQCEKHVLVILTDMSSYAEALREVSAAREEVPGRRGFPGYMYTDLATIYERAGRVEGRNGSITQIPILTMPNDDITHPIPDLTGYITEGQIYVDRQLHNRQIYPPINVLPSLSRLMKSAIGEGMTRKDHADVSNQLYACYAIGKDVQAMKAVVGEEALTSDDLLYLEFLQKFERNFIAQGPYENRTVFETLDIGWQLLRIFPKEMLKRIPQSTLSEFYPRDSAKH
UniProt Q9NVI7: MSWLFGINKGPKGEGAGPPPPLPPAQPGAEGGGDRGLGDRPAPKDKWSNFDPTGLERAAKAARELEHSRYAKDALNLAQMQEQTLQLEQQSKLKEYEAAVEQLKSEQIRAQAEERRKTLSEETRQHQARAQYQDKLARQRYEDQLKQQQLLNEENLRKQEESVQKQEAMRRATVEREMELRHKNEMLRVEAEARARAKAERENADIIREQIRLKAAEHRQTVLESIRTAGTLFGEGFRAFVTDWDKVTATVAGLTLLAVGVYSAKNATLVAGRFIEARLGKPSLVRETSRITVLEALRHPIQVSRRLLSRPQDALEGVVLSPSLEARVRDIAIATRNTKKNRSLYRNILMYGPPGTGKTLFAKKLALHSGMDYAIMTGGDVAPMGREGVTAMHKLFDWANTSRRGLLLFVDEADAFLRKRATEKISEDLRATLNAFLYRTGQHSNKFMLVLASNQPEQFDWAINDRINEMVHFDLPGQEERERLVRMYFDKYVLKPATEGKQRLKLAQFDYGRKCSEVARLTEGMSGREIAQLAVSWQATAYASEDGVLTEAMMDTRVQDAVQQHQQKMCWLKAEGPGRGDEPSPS
UniProt O14965: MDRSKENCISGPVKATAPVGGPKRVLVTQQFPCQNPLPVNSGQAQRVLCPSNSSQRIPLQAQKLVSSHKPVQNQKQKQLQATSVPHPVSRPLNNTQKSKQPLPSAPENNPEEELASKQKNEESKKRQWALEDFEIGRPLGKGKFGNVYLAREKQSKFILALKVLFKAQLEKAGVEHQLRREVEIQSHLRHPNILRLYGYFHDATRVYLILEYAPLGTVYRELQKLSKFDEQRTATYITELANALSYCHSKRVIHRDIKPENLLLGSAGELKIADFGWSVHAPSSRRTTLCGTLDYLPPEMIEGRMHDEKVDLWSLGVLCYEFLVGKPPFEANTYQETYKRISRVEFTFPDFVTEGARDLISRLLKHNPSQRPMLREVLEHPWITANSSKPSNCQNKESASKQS
UniProt O75143: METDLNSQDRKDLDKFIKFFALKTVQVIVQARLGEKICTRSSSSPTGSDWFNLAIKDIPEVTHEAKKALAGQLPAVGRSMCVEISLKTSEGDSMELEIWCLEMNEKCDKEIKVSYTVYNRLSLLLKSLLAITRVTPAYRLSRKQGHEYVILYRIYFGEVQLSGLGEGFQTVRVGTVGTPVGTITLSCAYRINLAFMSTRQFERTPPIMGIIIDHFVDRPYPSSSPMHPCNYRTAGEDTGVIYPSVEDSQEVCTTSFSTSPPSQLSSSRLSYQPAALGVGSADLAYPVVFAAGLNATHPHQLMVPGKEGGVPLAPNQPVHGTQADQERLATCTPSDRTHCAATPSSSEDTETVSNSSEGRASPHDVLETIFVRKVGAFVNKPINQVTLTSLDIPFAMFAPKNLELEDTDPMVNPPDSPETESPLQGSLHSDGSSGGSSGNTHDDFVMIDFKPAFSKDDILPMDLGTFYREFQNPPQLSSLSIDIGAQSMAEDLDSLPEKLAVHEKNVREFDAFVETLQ
UniProt Q8NB49: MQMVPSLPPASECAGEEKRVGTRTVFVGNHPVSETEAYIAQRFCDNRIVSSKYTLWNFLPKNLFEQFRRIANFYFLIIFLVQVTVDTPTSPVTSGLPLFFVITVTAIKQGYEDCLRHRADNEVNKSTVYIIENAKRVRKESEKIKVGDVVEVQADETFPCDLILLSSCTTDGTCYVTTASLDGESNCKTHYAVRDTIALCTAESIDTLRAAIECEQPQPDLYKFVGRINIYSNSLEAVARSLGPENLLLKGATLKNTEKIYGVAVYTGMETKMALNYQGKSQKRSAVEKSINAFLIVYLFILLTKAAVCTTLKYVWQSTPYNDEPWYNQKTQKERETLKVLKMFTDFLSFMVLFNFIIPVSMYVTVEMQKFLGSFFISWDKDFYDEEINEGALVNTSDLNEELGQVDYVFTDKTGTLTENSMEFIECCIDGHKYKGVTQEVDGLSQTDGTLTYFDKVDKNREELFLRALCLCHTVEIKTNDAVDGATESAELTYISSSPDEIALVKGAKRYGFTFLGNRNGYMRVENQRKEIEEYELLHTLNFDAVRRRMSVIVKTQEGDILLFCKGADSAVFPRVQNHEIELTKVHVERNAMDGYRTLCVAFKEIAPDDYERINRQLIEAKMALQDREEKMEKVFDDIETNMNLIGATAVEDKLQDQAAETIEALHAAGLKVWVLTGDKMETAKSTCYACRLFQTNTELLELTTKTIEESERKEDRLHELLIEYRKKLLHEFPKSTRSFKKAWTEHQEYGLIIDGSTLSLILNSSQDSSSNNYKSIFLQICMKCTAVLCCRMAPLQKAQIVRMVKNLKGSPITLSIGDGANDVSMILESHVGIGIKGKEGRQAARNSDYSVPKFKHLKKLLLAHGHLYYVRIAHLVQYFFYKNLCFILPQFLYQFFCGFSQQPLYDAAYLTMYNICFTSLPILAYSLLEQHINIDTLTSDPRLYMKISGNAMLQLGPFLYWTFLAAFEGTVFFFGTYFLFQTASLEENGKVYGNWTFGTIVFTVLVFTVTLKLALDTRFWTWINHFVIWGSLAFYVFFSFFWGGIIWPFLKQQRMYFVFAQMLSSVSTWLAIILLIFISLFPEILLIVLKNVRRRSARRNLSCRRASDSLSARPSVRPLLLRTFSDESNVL
UniProt O75964: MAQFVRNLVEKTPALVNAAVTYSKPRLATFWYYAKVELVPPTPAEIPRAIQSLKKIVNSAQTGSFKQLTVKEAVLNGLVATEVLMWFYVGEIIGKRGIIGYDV
UniProt O94766: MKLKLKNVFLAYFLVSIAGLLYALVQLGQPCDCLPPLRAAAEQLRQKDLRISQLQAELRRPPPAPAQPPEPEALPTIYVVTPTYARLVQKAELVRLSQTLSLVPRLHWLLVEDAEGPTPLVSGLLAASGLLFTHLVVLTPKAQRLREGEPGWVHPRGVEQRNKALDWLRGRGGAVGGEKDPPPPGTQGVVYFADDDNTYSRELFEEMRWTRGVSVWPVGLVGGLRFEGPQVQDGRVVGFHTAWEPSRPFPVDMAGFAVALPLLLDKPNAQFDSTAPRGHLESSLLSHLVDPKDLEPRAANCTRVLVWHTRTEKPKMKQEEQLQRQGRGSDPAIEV
UniProt P98196: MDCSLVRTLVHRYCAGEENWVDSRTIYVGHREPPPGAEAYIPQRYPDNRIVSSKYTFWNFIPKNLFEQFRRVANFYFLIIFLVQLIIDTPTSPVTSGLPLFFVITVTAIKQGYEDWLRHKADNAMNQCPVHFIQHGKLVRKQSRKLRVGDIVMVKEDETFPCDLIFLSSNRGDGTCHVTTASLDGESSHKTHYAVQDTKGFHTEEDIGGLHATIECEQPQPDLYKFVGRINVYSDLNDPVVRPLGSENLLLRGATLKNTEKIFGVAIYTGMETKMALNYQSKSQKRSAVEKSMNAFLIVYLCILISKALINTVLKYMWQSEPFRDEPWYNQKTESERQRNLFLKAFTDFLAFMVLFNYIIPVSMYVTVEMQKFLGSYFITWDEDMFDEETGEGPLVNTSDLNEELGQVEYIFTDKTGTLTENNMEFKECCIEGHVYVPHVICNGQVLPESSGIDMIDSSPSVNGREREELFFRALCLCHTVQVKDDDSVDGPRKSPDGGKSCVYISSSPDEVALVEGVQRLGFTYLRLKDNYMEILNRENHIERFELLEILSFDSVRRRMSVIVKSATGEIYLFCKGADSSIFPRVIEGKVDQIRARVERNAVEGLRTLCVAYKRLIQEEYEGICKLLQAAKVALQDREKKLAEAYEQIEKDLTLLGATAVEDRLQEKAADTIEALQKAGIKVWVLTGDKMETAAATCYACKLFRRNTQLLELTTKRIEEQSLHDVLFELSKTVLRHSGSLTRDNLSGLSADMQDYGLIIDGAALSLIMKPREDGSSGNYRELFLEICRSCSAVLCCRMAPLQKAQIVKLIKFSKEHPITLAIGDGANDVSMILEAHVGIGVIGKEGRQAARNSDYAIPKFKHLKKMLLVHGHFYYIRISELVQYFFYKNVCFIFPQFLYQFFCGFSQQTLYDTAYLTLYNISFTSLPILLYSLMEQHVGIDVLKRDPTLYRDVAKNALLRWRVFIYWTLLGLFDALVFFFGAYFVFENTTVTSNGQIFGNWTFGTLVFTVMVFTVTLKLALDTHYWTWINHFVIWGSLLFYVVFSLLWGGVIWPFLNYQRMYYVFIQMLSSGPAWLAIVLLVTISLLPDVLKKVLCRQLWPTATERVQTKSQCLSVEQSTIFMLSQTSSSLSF
UniProt P54252: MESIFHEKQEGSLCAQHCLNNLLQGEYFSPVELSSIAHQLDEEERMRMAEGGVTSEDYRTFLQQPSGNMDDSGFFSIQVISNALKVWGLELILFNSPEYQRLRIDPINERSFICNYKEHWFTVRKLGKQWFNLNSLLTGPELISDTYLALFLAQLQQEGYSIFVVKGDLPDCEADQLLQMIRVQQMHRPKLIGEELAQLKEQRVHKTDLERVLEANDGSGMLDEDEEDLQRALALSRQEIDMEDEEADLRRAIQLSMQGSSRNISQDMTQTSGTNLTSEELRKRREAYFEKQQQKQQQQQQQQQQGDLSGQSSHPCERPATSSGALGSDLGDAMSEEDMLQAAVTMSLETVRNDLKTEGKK
UniProt Q9NWX5: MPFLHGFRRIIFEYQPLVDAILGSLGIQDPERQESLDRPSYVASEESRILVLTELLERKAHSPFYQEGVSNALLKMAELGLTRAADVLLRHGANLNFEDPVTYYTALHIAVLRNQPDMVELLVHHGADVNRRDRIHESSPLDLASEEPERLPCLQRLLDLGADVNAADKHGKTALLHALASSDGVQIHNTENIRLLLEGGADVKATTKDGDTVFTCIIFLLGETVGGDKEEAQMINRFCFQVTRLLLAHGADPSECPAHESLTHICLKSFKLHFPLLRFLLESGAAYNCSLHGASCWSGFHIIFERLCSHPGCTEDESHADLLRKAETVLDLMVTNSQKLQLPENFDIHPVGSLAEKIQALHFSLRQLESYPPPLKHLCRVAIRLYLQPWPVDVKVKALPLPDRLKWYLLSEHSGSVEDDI

Assays:
Assay in all cases: log2 fold change, soluble protein after heating vs DMSO (PISA); higher = thermal stabilisation; K562 lysate, 10 uM; active = over 0.2 and 3.5 SD of the protein, either way, in both replicates (recomputed)
erlotinib = compound: C#Cc1cccc(Nc2ncnc3cc(OCCOC)c(OCCOC)cc23)c1 [erlotinib]
Method in brief: (§1)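 Soluble protein was defined as the supernatant remaining after 21,000xg for 90 min, following pooling of heated aliquots and adjustment to 0.5% NP-40 at 4°C. Before that, crude K562 extract at 1 mg/mL protein in PBS pH 7.4 with 1 mM MgCl2 was treated with 10 μM compound for 30 min and heated for 3 min across 48°C-58°C. Quantification used TMTpro 16plex LC-MS/MS with channel sums equalised, and values are log-two fold changes in thermal stability relative to solvent controls from duplicates.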

[1] = compound: C/C(=N\NC(=O)C1=CC(=CC=C1)S(=O)(=O)N2CCOCC2)/C3=C(C=CC(=C3)Cl)O
Method in brief: as §1

[2] = compound: C1=CC(=CC=C1C2=NC3=C(N2)C=C(C=C3)C(=O)N)OC4=CC=C(C=C4)Cl
Method in brief: as §1

[3] = compound: C1=CC2=C(C=CC(=C2)/C=C\3/C(=O)NC(=NCC4=CC=CS4)S3)N=C1
Method in brief: as §1

[4] = compound: C1=CC2=NC=CN=C2C=C1/C=C/3\C(=O)NC(=O)S3
Method in brief: as §1

[5] = compound: C1=CC=C(C=C1)C2=NC(=C(N2)C3=CC=NC=C3)C4=CC(=C(C=C4)Cl)O
Method in brief: as §1

[6] = compound: C1=CC=C2C(=C1)C3=NNC4=CC=CC(=C43)C2=O
Method in brief: as §1

[7] = compound: C1CCN(C1)C(=O)NC2=CC=CC(=C2)NC3=NC=C(C(=N3)NCCC4=CN=CN4)Br
Method in brief: as §1

[8] = compound: C1CN(CCC1(CC2=CC=C(C=C2)Cl)N)C3=NC=NC4=C3C=CN4
Method in brief: as §1

IRAK-1-4 Inhibitor I = compound: C1COCCN1CCN2C3=CC=CC=C3N=C2NC(=O)C4=CC(=CC=C4)[N+](=O)[O-] [IRAK-1-4 Inhibitor I]
Method in brief: as §1

ibrutinib = compound: C=CC(=O)N1CCC[C@@H](n2nc(-c3ccc(Oc4ccccc4)cc3)c3c(N)ncnc32)C1 [ibrutinib]
Method in brief: as §1

[9] = compound: CC(=O)c1cnc2ccc(-c3cc(Cl)c(O)c(Cl)c3)nc2c1N[C@H]1CC[C@H](CN(C)C)CC1
Method in brief: as §1

ralimetinib = compound: CC(C)(C)Cn1c(N)nc2ccc(-c3[nH]c(C(C)(C)C)nc3-c3ccc(F)cc3)nc21 [ralimetinib]
Method in brief: as §1

[10] = compound: CC(C)(O)CC(=O)NCCn1ccc2ncnc(Nc3ccc(Oc4cccc(C(F)(F)F)c4)c(Cl)c3)c21
Method in brief: as §1

[11] = compound: CC(C)C1=C2N=C(C=C(N2N=C1)NCC3=CC=CC=C3)NCCCCCCN
Method in brief: as §1

[12] = compound: CC1=C(C(CC(=O)N1)C2=CC=C(C=C2)C(F)(F)F)C(=O)NC3=C(C=C4C(=C3)C=NN4)F
Method in brief: as §1

[13] = compound: CC1=C(C2=C(C=C1)C(=O)C3=CC=CC=C3N2CCCN)C
Method in brief: as §1

[14] = compound: CC1=C(C=C(C=C1)NC(=O)C2=CC(=CC=C2)C(C)(C)C#N)NC3=CC4=C(C=C3)N=CN(C4=O)C
Method in brief: as §1

[15] = compound: CC1=C(C=C(C=C1)NC(=O)C2=CC(=CC=C2)N(C)C)NC(=O)C3=CC=C(C=C3)O
Method in brief: as §1

[16] = compound: CC1=CC=C(C=C1)SC2=C3C=C(SC3=CN=C2)C(=O)N
Method in brief: as §1

Measured: log2 fold change

ATP1A3 isoform 3 (UniProt P13637)
inactive: erlotinib 0.006 | [1] -0.022 | [2] 0.027 | [3] 0.004 | [4] -0.012 | [5] -0.005 | [6] -0.025 | [7] -0.052 | [8] 0.014 | IRAK-1-4 Inhibitor I 0.049 | ibrutinib -0.014 | [9] -0.012 | ralimetinib -0.009 | [10] -0.039 | [11] -0.03 | [12] -0.056 | [13] -0.023 | [14] 0.041 | [15] -0.001 | [16] -0.026

ATP6V1F isoform 2 (UniProt Q16864)
inactive: erlotinib 0.053 | [1] 0.086 | [2] -0.015 | [3] 0 | [4] 0.136 | [5] 0.025 | [6] 0.129 | [7] -0.058 | [8] 0.017 | IRAK-1-4 Inhibitor I 0.031 | ibrutinib 0.075 | [9] -0.057 | ralimetinib -0.042 | [10] -0.042 | [11] 0.029 | [12] -0.021 | [13] -0.064 | [14] 0.027 | [15] 0.036 | [16] 0.084

ATP6V0A1 isoform 3 (UniProt Q93050)
inactive: erlotinib -0.011 | [1] -0.013 | [2] 0.036 | [3] -0.025 | [4] 0.018 | [5] 0.026 | [6] -0.031 | [7] -0.017 | [8] -0.028 | IRAK-1-4 Inhibitor I 0.036 | ibrutinib 0.03 | [9] -0.007 | ralimetinib 0.005 | [10] -0.037 | [11] 0.008 | [12] 0.01 | [13] -0.025 | [14] 0.028 | [15] -0.05 | [16] -0.01

ATP5MPL (UniProt P56378)
inactive: erlotinib 0.012 | [1] -0.002 | [2] -0.01 | [3] 0.013 | [4] 0.022 | [5] -0.048 | [6] 0.09 | [7] -0.055 | [8] -0.032 | IRAK-1-4 Inhibitor I -0.031 | ibrutinib -0.001 | [9] -0.039 | ralimetinib 0.034 | [10] -0.01 | [11] -0.013 | [12] -0.065 | [13] 0.02 | [14] 0.07 | [15] 0.03 | [16] 0.038

ATP6V1B2 (UniProt P21281)
inactive: erlotinib -0.015 | [1] -0.029 | [2] 0.022 | [3] -0.005 | [4] -0.016 | [5] 0.026 | [6] 0.005 | [7] -0.046 | [8] -0.012 | IRAK-1-4 Inhibitor I 0.033 | ibrutinib -0.015 | [9] -0.023 | ralimetinib -0.016 | [10] -0.033 | [11] -0.005 | [12] 0.019 | [13] -0.024 | [14] -0.013 | [15] 0.014 | [16] -0.036

ATAD3A (UniProt Q9NVI7)
inactive: erlotinib -0.032 | [1] 0.007 | [2] -0.075 | [3] 0.032 | [4] -0.05 | [5] 0 | [6] 0.066 | [7] 0.03 | [8] 0.089 | IRAK-1-4 Inhibitor I 0.039 | ibrutinib -0.042 | [9] 0.027 | ralimetinib 0.028 | [10] -0.076 | [11] 0.013 | [12] 0.034 | [13] 0.005 | [14] -0.036 | [15] -0.004 | [16] 0.034

AURKA (UniProt O14965)
inactive: erlotinib 0.111 | [1] -0.028 | [2] -0.033 | [3] 0.008 | [4] 0 | [5] -0.039 | [6] 0.359 | [7] 0.483 | [8] -0.004 | IRAK-1-4 Inhibitor I 0.129 | ibrutinib 0.348 | [9] 0.144 | ralimetinib -0.042 | [10] 0.037 | [11] -0.051 | [12] 0.034 | [13] -0.039 | [14] -0.042 | [15] -0.005 | [16] 0.007

ATF7IP isoform 4 (UniProt Q6VMQ6)
inactive: erlotinib 0.012 | [1] -0.013 | [2] 0.063 | [3] 0.032 | [4] -0.035 | [5] 0.054 | [6] -0.007 | [7] -0.063 | [8] 0.023 | IRAK-1-4 Inhibitor I 0.02 | ibrutinib -0.049 | [9] 0.013 | ralimetinib 0.012 | [10] -0.042 | [11] -0.01 | [12] -0.044 | [13] 0.007 | [14] -0.004 | [15] -0.015 | [16] 0.014

ATG13 isoform 2 (UniProt O75143)
inactive: erlotinib 0.019 | [1] -0.055 | [2] -0.033 | [3] 0.021 | [4] -0.001 | [5] -0.004 | [6] 0.02 | [7] -0.031 | [8] 0.019 | IRAK-1-4 Inhibitor I 0.006 | ibrutinib 0.01 | [9] 0.011 | ralimetinib -0.003 | [10] -0.018 | [11] 0.004 | [12] 0 | [13] -0.006 | [14] 0.048 | [15] -0.024 | [16] 0.016

ATP11C (UniProt Q8NB49)
inactive: erlotinib 0.014 | [1] 0.037 | [2] 0.021 | [3] 0.01 | [4] -0.035 | [5] -0.008 | [6] -0.037 | [7] 0.027 | [8] -0.004 | IRAK-1-4 Inhibitor I -0.006 | ibrutinib 0.005 | [9] 0.007 | ralimetinib 0.007 | [10] -0.046 | [11] -0.006 | [12] 0.025 | [13] -0.041 | [14] 0.028 | [15] 0.013 | [16] -0.007

ATP5MG (UniProt O75964)
inactive: erlotinib 0 | [1] 0.028 | [2] 0.007 | [3] 0.023 | [4] 0.015 | [5] 0.013 | [6] -0.004 | [7] 0.014 | [8] 0.051 | IRAK-1-4 Inhibitor I 0.049 | ibrutinib 0.001 | [9] -0.003 | ralimetinib -0.007 | [10] -0.024 | [11] 0.008 | [12] -0.028 | [13] -0.035 | [14] 0.038 | [15] -0.019 | [16] 0.004

Two successive records from above:
AURKA (UniProt O14965)
inactive: erlotinib 0.111 | [1] -0.028 | [2] -0.033 | [3] 0.008 | [4] 0 | [5] -0.039 | [6] 0.359 | [7] 0.483 | [8] -0.004 | IRAK-1-4 Inhibitor I 0.129 | ibrutinib 0.348 | [9] 0.144 | ralimetinib -0.042 | [10] 0.037 | [11] -0.051 | [12] 0.034 | [13] -0.039 | [14] -0.042 | [15] -0.005 | [16] 0.007

ATF7IP isoform 4 (UniProt Q6VMQ6)
inactive: erlotinib 0.012 | [1] -0.013 | [2] 0.063 | [3] 0.032 | [4] -0.035 | [5] 0.054 | [6] -0.007 | [7] -0.063 | [8] 0.023 | IRAK-1-4 Inhibitor I 0.02 | ibrutinib -0.049 | [9] 0.013 | ralimetinib 0.012 | [10] -0.042 | [11] -0.01 | [12] -0.044 | [13] 0.007 | [14] -0.004 | [15] -0.015 | [16] 0.014

Additional records

B3GAT3 (UniProt O94766)
inactive: erlotinib -0.045 | [1] -0.068 | [2] -0.079 | [3] 0.028 | [4] -0.017 | [5] -0.097 | [6] 0.002 | [7] -0.066 | [8] 0.01 | IRAK-1-4 Inhibitor I 0.052 | ibrutinib -0.004 | [9] -0.001 | ralimetinib 0.082 | [10] -0.05 | [11] 0.002 | [12] 0.027 | [13] -0.033 | [14] -0.03 | [15] -0.006 | [16] 0.034

ATP1A4 (UniProt Q13733)
inactive: erlotinib 0.006 | [1] 0.063 | [2] 0.001 | [3] -0.002 | [4] -0.006 | [5] 0.003 | [6] 0.014 | [7] 0.007 | [8] 0.017 | IRAK-1-4 Inhibitor I 0.007 | ibrutinib -0.017 | [9] 0.032 | ralimetinib -0.045 | [10] 0.03 | [11] -0.032 | [12] -0.01 | [13] -0.018 | [14] 0.021 | [15] -0.025 | [16] 0.016

ATP11A (UniProt P98196)
inactive: erlotinib -0.003 | [1] -0.067 | [2] -0.033 | [3] -0.011 | [4] -0.022 | [5] 0.016 | [6] 0.102 | [7] -0.005 | [8] -0.015 | IRAK-1-4 Inhibitor I 0.087 | ibrutinib -0.02 | [9] 0.091 | ralimetinib 0.122 | [10] -0.046 | [11] -0.017 | [12] -0.019 | [13] -0.065 | [14] -0.006 | [15] -0.074 | [16] 0.02

ATXN3 isoform 1 (UniProt P54252)
inactive: erlotinib 0.001 | [1] -0.02 | [2] 0.001 | [3] 0.059 | [4] 0.113 | [5] 0.024 | [6] -0.032 | [7] -0.052 | [8] -0.013 | IRAK-1-4 Inhibitor I -0.015 | ibrutinib 0.009 | [9] -0.005 | ralimetinib 0.013 | [10] -0.079 | [11] -0.017 | [12] 0.017 | [13] 0.052 | [14] 0.031 | [15] -0.012 | [16] 0.056

ASB6 (UniProt Q9NWX5)
inactive: erlotinib 0.038 | [1] -0.311 | [2] 0.04 | [3] -0.094 | [4] -0.005 | [5] 0.06 | [6] 0.092 | [7] -0.053 | [8] 0.327 | IRAK-1-4 Inhibitor I 0.002 | ibrutinib -0.04 | [9] -0.087 | ralimetinib 0.027 | [10] -0.013 | [11] 0.001 | [12] -0.13 | [13] -0.007 | [14] 0.055 | [15] -0.052 | [16] 0.01
